Laboratory results: the supplement of paper PMC10849652
The other results are listed elsewhere or left out.

Protein sequences, listed by entry. Tags and fused reporters are not part of them. Lines headed by an entry give the natural chain unless they say otherwise; changes in a name come on top.
UniProt P27216: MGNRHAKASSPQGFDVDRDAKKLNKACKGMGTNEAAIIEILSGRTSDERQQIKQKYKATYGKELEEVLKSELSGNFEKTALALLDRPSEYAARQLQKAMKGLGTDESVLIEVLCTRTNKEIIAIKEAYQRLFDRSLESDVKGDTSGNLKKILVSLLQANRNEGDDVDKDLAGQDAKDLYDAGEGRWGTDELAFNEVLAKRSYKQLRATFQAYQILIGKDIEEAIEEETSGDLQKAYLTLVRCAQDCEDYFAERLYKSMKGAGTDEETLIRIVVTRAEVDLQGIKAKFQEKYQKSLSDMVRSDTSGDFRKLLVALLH
UniProt Q9HCJ1: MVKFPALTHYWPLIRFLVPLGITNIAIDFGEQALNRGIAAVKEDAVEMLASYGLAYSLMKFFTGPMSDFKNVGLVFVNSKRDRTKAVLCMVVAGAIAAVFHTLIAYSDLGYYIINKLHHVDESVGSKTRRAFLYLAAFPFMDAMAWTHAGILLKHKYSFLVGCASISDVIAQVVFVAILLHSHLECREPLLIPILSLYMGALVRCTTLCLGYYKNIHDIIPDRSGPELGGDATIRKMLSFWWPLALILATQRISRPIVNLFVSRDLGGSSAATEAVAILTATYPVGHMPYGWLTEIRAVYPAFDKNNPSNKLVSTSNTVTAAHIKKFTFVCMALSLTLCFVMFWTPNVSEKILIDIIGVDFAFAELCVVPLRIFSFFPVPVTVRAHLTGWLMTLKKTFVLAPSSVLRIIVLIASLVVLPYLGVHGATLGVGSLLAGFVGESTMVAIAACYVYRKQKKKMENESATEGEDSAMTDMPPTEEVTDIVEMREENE
UniProt O75342: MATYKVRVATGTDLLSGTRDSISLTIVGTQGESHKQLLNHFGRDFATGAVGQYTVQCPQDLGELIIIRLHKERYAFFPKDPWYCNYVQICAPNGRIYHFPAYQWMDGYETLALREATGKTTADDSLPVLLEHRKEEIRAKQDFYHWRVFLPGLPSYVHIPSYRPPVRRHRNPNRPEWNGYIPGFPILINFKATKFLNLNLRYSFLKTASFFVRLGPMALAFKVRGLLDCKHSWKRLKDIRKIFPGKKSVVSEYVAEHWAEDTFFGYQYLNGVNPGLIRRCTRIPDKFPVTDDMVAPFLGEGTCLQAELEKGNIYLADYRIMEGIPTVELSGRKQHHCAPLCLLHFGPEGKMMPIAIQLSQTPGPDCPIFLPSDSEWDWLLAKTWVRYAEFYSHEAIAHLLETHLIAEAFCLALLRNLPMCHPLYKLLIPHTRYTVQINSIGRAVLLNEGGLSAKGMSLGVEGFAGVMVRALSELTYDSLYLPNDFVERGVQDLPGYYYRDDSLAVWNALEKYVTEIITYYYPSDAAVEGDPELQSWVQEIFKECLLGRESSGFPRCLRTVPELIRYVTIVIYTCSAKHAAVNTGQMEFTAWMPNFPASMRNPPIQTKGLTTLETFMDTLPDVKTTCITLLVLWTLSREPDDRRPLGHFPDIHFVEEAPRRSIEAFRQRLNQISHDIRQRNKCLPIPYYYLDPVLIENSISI
UniProt Q9BXX3: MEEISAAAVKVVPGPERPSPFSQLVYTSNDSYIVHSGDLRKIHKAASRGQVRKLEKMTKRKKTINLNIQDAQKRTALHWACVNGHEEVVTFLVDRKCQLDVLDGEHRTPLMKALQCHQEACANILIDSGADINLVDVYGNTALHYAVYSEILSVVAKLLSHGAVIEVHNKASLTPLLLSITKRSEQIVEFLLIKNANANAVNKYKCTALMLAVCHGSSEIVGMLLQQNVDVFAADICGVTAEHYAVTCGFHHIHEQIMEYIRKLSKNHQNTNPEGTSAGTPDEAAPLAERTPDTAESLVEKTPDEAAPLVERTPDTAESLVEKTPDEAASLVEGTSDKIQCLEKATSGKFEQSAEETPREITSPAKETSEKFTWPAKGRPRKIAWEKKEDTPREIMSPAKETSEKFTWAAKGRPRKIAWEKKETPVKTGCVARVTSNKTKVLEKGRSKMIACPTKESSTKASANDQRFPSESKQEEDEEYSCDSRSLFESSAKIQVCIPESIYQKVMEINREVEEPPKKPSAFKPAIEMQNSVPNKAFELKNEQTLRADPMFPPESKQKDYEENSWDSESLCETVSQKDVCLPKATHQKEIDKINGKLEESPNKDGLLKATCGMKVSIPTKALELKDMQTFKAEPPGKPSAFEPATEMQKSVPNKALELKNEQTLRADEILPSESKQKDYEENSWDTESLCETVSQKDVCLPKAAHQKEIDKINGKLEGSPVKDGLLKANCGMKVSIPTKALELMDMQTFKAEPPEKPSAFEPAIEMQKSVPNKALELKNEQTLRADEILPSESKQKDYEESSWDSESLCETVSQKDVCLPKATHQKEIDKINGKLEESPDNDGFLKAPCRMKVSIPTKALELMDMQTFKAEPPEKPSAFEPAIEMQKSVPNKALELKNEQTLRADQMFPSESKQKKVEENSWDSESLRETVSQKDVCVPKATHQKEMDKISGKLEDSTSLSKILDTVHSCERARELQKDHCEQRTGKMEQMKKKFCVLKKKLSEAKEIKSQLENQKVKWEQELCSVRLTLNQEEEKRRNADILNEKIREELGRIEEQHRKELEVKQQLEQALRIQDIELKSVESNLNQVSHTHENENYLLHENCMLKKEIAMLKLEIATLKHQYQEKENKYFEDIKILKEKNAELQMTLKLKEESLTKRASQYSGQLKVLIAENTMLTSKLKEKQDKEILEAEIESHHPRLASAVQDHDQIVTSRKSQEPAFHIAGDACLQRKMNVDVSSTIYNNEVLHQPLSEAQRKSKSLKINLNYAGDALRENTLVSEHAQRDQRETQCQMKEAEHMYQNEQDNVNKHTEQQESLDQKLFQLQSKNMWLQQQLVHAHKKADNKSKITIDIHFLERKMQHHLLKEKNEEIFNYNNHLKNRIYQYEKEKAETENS
UniProt Q10567: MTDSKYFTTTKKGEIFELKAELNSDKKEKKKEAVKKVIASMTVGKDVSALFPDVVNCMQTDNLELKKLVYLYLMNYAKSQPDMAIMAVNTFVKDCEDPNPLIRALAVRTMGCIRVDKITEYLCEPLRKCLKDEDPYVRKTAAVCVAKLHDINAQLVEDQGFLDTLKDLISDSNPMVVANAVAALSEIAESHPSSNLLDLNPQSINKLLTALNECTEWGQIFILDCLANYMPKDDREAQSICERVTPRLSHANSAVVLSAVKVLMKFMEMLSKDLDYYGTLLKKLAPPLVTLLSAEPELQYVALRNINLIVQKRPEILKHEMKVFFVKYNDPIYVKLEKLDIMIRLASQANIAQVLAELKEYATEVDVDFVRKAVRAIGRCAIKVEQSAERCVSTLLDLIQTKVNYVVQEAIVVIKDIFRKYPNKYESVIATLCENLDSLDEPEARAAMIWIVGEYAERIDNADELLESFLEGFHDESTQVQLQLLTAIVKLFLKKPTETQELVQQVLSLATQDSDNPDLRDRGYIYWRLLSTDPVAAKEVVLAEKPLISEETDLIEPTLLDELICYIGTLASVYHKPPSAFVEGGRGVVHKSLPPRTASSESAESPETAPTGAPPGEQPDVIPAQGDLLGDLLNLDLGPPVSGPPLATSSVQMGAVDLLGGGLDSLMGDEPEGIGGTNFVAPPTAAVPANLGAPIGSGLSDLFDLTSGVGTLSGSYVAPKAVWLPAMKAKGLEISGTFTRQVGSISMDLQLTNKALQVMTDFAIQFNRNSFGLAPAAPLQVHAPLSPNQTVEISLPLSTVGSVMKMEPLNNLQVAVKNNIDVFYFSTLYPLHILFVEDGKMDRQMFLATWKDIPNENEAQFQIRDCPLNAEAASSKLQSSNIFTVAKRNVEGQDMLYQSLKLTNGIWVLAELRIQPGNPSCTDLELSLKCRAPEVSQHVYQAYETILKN
UniProt Q9C0C7: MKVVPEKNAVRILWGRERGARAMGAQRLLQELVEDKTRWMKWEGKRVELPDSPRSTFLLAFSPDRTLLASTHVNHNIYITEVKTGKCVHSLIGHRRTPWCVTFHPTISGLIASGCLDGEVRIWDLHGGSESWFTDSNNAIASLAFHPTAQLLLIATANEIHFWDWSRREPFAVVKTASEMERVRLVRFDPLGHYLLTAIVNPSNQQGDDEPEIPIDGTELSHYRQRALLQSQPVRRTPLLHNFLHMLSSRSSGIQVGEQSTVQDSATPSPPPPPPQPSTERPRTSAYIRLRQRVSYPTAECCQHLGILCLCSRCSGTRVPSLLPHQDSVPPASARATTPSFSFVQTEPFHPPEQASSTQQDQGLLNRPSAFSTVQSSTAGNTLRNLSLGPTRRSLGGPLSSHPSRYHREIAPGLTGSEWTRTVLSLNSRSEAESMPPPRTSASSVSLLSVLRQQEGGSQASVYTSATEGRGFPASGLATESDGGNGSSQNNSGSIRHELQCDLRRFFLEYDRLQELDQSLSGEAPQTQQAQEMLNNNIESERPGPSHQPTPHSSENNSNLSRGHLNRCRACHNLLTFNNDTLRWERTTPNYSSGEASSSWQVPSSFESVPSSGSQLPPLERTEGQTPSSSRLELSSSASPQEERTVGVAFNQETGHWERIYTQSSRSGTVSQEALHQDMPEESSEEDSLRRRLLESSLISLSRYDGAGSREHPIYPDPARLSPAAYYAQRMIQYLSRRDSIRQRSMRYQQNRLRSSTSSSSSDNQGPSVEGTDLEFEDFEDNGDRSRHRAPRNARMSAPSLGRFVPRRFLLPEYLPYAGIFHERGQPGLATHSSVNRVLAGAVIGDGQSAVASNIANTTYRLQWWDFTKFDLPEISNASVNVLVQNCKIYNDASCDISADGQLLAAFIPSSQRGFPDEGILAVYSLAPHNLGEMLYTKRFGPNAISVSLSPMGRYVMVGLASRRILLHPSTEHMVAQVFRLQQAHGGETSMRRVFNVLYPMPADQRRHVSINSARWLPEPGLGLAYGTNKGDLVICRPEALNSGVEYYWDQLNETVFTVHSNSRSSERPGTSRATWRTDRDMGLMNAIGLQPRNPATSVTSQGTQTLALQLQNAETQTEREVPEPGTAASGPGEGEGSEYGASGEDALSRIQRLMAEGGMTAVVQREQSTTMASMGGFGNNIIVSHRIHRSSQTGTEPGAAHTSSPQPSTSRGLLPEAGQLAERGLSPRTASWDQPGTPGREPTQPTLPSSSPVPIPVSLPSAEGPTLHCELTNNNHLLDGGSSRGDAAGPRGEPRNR
UniProt O14617: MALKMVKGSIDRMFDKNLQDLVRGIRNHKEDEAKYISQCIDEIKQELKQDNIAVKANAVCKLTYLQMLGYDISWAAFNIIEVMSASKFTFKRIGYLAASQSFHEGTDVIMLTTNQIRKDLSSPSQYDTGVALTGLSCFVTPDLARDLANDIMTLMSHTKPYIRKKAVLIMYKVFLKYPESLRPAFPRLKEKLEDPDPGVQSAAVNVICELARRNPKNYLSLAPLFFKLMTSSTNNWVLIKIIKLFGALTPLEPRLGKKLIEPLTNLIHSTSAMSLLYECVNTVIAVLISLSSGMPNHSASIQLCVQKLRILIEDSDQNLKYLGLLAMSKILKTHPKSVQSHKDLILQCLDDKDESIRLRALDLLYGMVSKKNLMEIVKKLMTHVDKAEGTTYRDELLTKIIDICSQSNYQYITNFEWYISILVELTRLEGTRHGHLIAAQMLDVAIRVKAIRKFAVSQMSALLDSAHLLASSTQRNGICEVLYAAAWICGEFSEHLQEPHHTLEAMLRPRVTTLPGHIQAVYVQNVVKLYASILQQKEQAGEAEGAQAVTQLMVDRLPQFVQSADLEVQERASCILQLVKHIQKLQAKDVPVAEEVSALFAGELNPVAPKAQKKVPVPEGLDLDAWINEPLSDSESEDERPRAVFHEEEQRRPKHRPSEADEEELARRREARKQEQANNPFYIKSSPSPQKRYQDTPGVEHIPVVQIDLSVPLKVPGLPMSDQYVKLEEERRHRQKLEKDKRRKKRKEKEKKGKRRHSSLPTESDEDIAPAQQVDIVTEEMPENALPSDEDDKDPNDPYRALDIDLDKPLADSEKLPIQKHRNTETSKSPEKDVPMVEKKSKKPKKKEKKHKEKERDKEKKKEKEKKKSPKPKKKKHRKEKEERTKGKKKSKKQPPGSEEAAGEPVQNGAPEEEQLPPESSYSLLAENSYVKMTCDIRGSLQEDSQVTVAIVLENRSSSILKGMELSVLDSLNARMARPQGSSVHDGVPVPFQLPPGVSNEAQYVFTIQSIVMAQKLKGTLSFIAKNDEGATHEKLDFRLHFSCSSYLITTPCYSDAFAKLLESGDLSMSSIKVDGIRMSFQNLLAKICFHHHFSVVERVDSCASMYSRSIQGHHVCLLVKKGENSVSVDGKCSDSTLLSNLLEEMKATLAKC

Columns and labels:
Assay in all cases: log2 fold change, soluble protein after heating vs DMSO (PISA); higher = thermal stabilisation; K562 lysate, 10 uM; active = over 0.2 and 3.5 SD of the protein, either way, in both replicates (recomputed)
[1] = compound: C=CC(=O)N1CCC[C@@H](n2nc(-c3ccc(Oc4ccccc4)cc3)c3c(N)ncnc32)C1 [ibrutinib]
Outline: (§1)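 Values give the log-two fold change in thermal stability against solvent controls, from duplicates. Crude K562 extract at 1 mg/mL protein, made by dounce homogenisation in PBS pH 7.4 with 1 mM MgCl2, was treated with 10 μM compound for 30 min. After 3 min heating across 48°C-58°C, aliquots were pooled, adjusted to 0.5% NP-40 at 4°C and centrifuged at 21,000xg for 90 min. The supernatant was measured by TMTpro 16plex LC-MS/MS with channel sums equalised.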

[2] = compound: CC(=O)c1cnc2ccc(-c3cc(Cl)c(O)c(Cl)c3)nc2c1N[C@H]1CC[C@H](CN(C)C)CC1
Outline: as §1

[3] = compound: CC(C)(C)Cn1c(N)nc2ccc(-c3[nH]c(C(C)(C)C)nc3-c3ccc(F)cc3)nc21 [ralimetinib]
Outline: as §1

[4] = compound: CC(C)(O)CC(=O)NCCn1ccc2ncnc(Nc3ccc(Oc4cccc(C(F)(F)F)c4)c(Cl)c3)c21
Outline: as §1

[5] = compound: CC(C)C1=C2N=C(C=C(N2N=C1)NCC3=CC=CC=C3)NCCCCCCN
Outline: as §1

[6] = compound: CC1=C(C(CC(=O)N1)C2=CC=C(C=C2)C(F)(F)F)C(=O)NC3=C(C=C4C(=C3)C=NN4)F
Outline: as §1

[7] = compound: CC1=C(C2=C(C=C1)C(=O)C3=CC=CC=C3N2CCCN)C
Outline: as §1

[8] = compound: CC1=C(C=C(C=C1)NC(=O)C2=CC(=CC=C2)C(C)(C)C#N)NC3=CC4=C(C=C3)N=CN(C4=O)C
Outline: as §1

[9] = compound: CC1=C(C=C(C=C1)NC(=O)C2=CC(=CC=C2)N(C)C)NC(=O)C3=CC=C(C=C3)O
Outline: as §1

[10] = compound: CC1=CC=C(C=C1)SC2=C3C=C(SC3=CN=C2)C(=O)N
Outline: as §1

[11] = compound: CCCS(=O)(=O)Nc1ccc(F)c(C(=O)c2c[nH]c3ncc(-c4ccc(Cl)cc4)cc23)c1F [vemurafenib]
Outline: as §1

[12] = compound: CCCS(=O)(=O)Nc1ccc(F)c(C(=O)c2c[nH]c3ncc(Cl)cc23)c1F
Outline: as §1

[13] = compound: CCN(CCCOc1ccc2c(Nc3cc(CC(=O)Nc4cccc(F)c4)[nH]n3)ncnc2c1)CCOP(=O)(O)O [barasertib]
Outline: as §1

[14] = compound: CC[C@@H]1C(=O)N(C)c2cnc(Nc3ccc(C(=O)N[C@H]4CC[C@H](N5CCN(CC6CC6)CC5)CC4)cc3OC)nc2N1C(C)C [volasertib]
Outline: as §1

[15] = compound: CCn1c(C(=O)N(C2CC2)C2CC2)cc2c3c(ncn3C)c(Nc3cc(C)n(C)n3)nc21
Outline: as §1

[16] = compound: CCn1cc(-c2ccnc3[nH]c(-c4cccc(CN(C)C)c4)cc23)c(-c2ccc(NC(=O)N(C)C)cc2)n1
Outline: as §1

[17] = compound: CN1CCC(CNc2ccc3ncc(-c4cccc(OC(F)(F)F)c4)n3n2)CC1
Outline: as §1

[18] = compound: CN1CCN(CCOc2cc(OC3CCOCC3)c3c(Nc4c(Cl)ccc5c4OCO5)ncnc3c2)CC1 [saracatinib]
Outline: as §1

[19] = compound: CN1CCN(c2nc(C3=C(c4c[nH]c5ccccc45)C(=O)NC3=O)c3ccccc3n2)CC1 [sotrastaurin]
Outline: as §1

[20] = compound: CC[C@@H]1C(=O)N(C)c2cnc(Nc3ccc(C(=O)NC4CCN(C)CC4)cc3OC)nc2N1C1CCCC1
Outline: as §1

Target | log2 fold change [1] | log2 fold change [2] | log2 fold change [3] | log2 fold change [4] | log2 fold change [5] | log2 fold change [6] | log2 fold change [7] | log2 fold change [8] | log2 fold change [9] | log2 fold change [10] | log2 fold change [11] | log2 fold change [12] | log2 fold change [13] | log2 fold change [14] | log2 fold change [15] | log2 fold change [16] | log2 fold change [17] | log2 fold change [18] | log2 fold change [19] | log2 fold change [20]
ANXA13 isoform 2 (UniProt P27216) | inactive: 0.051 | inactive: 0.092 | inactive: 0.022 | inactive: 0.169 | inactive: -0.057 | inactive: -0.034 | inactive: 0.062 | inactive: 0.053 | inactive: -0.001 | inactive: 0.06 | inactive: -0.129 | inactive: -0.071 | inactive: 0.091 | inactive: -0.035 | inactive: 0.131 | inactive: -0.179 | inactive: 0.106 | inactive: 0.004 | inactive: -0.001 | 
ALS2 (UniProt Q96Q42) | inactive: 0.013 | inactive: 0 | inactive: -0.006 | inactive: -0.034 | inactive: 0.21 | inactive: -0.034 | inactive: -0.026 | inactive: -0.024 | inactive: 0.114 | inactive: -0.008 | inactive: 0.031 | inactive: 0.069 | inactive: -0.025 | inactive: 0.065 | inactive: 0.06 | inactive: -0.106 | inactive: -0.064 | inactive: 0.001 | inactive: 0.008 | inactive: -0.006
ALDH16A1 (UniProt Q8IZ83) | inactive: 0.037 | inactive: -0.006 | inactive: 0.033 | inactive: 0.004 | inactive: -0.046 | inactive: 0 | inactive: -0.036 | inactive: 0.002 | inactive: 0.022 | inactive: -0.01 | inactive: -0.025 | inactive: 0.041 | inactive: -0.014 | inactive: 0.013 | inactive: -0.019 | inactive: -0.031 | inactive: 0.06 | inactive: 0.008 | inactive: 0.003 | inactive: -0.063
ANKRD26 (UniProt Q9UPS8) | inactive: 0.116 | inactive: 0.191 | inactive: -0.05 | inactive: 0.003 | inactive: 0.003 | inactive: -0.088 |  | inactive: 0.002 | inactive: 0 | inactive: -0.238 | inactive: -0.277 | inactive: -0.079 | inactive: 0.267 | inactive: 0.02 | inactive: -0.062 |  |  |  | inactive: -0.014 | inactive: 0.146
ANXA2 (UniProt H0YL33) | inactive: 0.235 | inactive: -0.167 | inactive: -0.076 | inactive: 0.129 | inactive: -0.353 | inactive: 0.033 | inactive: 0.025 | inactive: -0.211 | inactive: 0.005 | inactive: -0.144 |  | inactive: 0.012 | inactive: 0.37 | inactive: 0.136 | inactive: 0.012 | active: 0.643 | inactive: -0.416 | inactive: 0.088 | inactive: 0.214 | 
ALG9 isoform 3 (UniProt Q9H6U8) | inactive: -0.047 | inactive: 0.031 | inactive: -0.014 | inactive: 0.027 | inactive: -0.096 | inactive: 0.04 | inactive: -0.04 | inactive: -0.049 | inactive: -0.021 | inactive: -0.022 | inactive: -0.036 | inactive: 0.008 | inactive: 0.003 | inactive: -0.006 | inactive: 0.013 | inactive: -0.115 | inactive: 0.12 | inactive: -0.107 | inactive: 0.016 | inactive: 0.056
ALG2 (UniProt Q9H553) | inactive: -0.077 | inactive: 0.007 | inactive: 0.034 | inactive: 0.037 | inactive: -0.022 | inactive: 0.017 | inactive: -0.09 | inactive: -0.009 | inactive: 0.07 | inactive: -0.021 | inactive: 0.067 | inactive: 0.007 | inactive: 0.066 | inactive: -0.035 | inactive: 0.068 | inactive: -0.08 | inactive: -0.007 | inactive: 0.042 | inactive: -0.02 | inactive: -0.112
AMMECR1 (UniProt Q9Y4X0) | inactive: -0.021 | inactive: -0.008 | inactive: 0.006 | inactive: -0.016 | inactive: 0.014 | inactive: 0.009 | inactive: -0.01 | inactive: -0.003 | inactive: -0.027 | inactive: -0.039 | inactive: 0.067 | inactive: 0 | inactive: 0.008 | inactive: -0.03 | inactive: -0.026 | inactive: -0.012 | inactive: 0.032 | inactive: 0 | inactive: 0.008 | inactive: -0.019
ANKLE2 (UniProt Q86XL3) | inactive: 0.005 |  | inactive: -0.009 | inactive: -0.049 | inactive: -0.046 | inactive: 0.042 | inactive: 0.037 | inactive: -0.002 | inactive: 0.029 |  | inactive: 0.001 |  | inactive: 0.059 |  | inactive: 0.029 | inactive: 0.01 | inactive: -0.032 | inactive: 0.008 | inactive: -0.063 | inactive: 0.022
ANGPTL4 (UniProt M0R3A2) | inactive: 0.057 | inactive: -0.011 | inactive: -0.076 | inactive: -0.082 | inactive: 0.077 |  |  |  | inactive: 0.077 | inactive: -0.113 | inactive: 0.45 | inactive: -0.368 | inactive: 0.053 | inactive: -0.176 | inactive: 0.068 | inactive: 0.02 | inactive: -0.205 |  |  | inactive: 0.039
ANKH (UniProt Q9HCJ1) |  | inactive: 0.008 | inactive: -0.08 | inactive: -0.089 | inactive: -0.117 | inactive: 0.052 |  | inactive: 0.005 | inactive: 0.011 | inactive: -0.075 | inactive: 0.068 | inactive: -0.089 |  | inactive: -0.072 | inactive: 0.016 |  |  |  | inactive: 0.044 | inactive: 0.069
ALOX12B (UniProt O75342) | inactive: -0.144 |  | inactive: -0.127 | inactive: 0.231 | inactive: 0.026 | inactive: 0.051 |  | inactive: -0.043 | inactive: -0.171 |  |  |  | inactive: 0.109 |  | inactive: -0.043 | inactive: 0.179 | inactive: 0.145 |  | inactive: 0.009 | 
AP2S1 (UniProt M0QZ21) | inactive: -0.125 | inactive: -0.084 |  |  |  |  |  |  |  | inactive: -0.086 |  | inactive: 0.067 | inactive: -0.038 | inactive: -0.081 |  | inactive: -0.167 | inactive: -0.276 |  |  | 
ALG3 (UniProt Q92685) | inactive: -0.163 | inactive: 0.03 | inactive: -0.007 | inactive: -0.032 | inactive: -0.278 |  | inactive: 0.014 | inactive: -0.024 | inactive: 0.042 | inactive: 0.03 | inactive: 0.084 | inactive: -0.011 | inactive: 0.031 | inactive: 0.01 | inactive: 0.032 | inactive: -0.371 | inactive: 0.06 | inactive: 0.068 | inactive: 0.029 | inactive: 0.012
ANKRD44 isoform 2 (UniProt Q8N8A2) | inactive: -0.131 | inactive: 0.067 |  |  | inactive: -0.026 | inactive: 0.075 |  |  |  | inactive: -0.029 | inactive: 0.056 | inactive: 0.019 | inactive: 0.058 | inactive: 0.054 |  | active: -1.9 | inactive: 0.616 |  |  | inactive: -0.308
ALG12 (UniProt Q9BV10) | inactive: 0.118 | inactive: -0.003 | inactive: 0.048 | inactive: -0.01 | inactive: -0.113 |  | inactive: -0.058 |  | inactive: 0.028 | inactive: -0.027 | inactive: -0.007 | inactive: 0.03 | inactive: -0.034 | inactive: 0.02 | inactive: 0.008 | inactive: 0.072 | inactive: 0.069 | inactive: 0.018 |  | inactive: 0.024
ANKRD30A (UniProt Q9BXX3) | inactive: -0.01 | inactive: 0.77 | inactive: 0.014 | inactive: 0.088 |  | inactive: 0.007 | inactive: 0.038 | inactive: -0.088 | inactive: 0.077 | inactive: -0.177 |  | inactive: 0.111 | inactive: 0.087 | inactive: -0.08 | inactive: 0.152 | inactive: 0.262 | inactive: 0.891 | inactive: 0.072 | inactive: 0.032 | inactive: -0.102
AP1B1 isoform 3 (UniProt Q10567) | inactive: 0.002 |  | inactive: -0.111 | inactive: 0.172 |  |  |  | inactive: 0.213 | inactive: -0.14 |  |  |  | inactive: -0.069 |  | inactive: 0.109 |  |  |  | inactive: 0.069 | 
AMBRA1 isoform 5 (UniProt Q9C0C7) |  | inactive: 0.119 | inactive: -0.058 | inactive: -0.066 | inactive: 0.033 | inactive: -0.137 | inactive: -0.049 | inactive: -0.031 | inactive: 0.022 | inactive: 0.185 | inactive: 0.041 | inactive: -0.041 |  | inactive: -0.039 | inactive: 0.012 | inactive: -0.086 | inactive: 0.048 | inactive: -0.06 | inactive: 0.063 | inactive: 0.019
AP3D1 isoform 2 (UniProt O14617) |  | inactive: -0.085 |  |  | inactive: 0.09 | inactive: 0.127 |  |  |  | inactive: 0.053 | inactive: 0.002 | inactive: -0.085 |  | inactive: -0.012 |  | inactive: -0.231 | inactive: 0.058 |  |  | 

2 entries drawn at random from those above:
Target | log2 fold change [1] | log2 fold change [2] | log2 fold change [3] | log2 fold change [4] | log2 fold change [5] | log2 fold change [6] | log2 fold change [7] | log2 fold change [8] | log2 fold change [9] | log2 fold change [10] | log2 fold change [11] | log2 fold change [12] | log2 fold change [13] | log2 fold change [14] | log2 fold change [15] | log2 fold change [16] | log2 fold change [17] | log2 fold change [18] | log2 fold change [19] | log2 fold change [20]
ANKLE2 (UniProt Q86XL3) | inactive: 0.005 |  | inactive: -0.009 | inactive: -0.049 | inactive: -0.046 | inactive: 0.042 | inactive: 0.037 | inactive: -0.002 | inactive: 0.029 |  | inactive: 0.001 |  | inactive: 0.059 |  | inactive: 0.029 | inactive: 0.01 | inactive: -0.032 | inactive: 0.008 | inactive: -0.063 | inactive: 0.022
ANKRD30A (UniProt Q9BXX3) | inactive: -0.01 | inactive: 0.77 | inactive: 0.014 | inactive: 0.088 |  | inactive: 0.007 | inactive: 0.038 | inactive: -0.088 | inactive: 0.077 | inactive: -0.177 |  | inactive: 0.111 | inactive: 0.087 | inactive: -0.08 | inactive: 0.152 | inactive: 0.262 | inactive: 0.891 | inactive: 0.072 | inactive: 0.032 | inactive: -0.102
